Results: PubChem BioAssay AID540256 (National Center for Advancing Translational Sciences (NCATS), 2011)
In all, about 300,000 compounds went through this assay and about 3,700 (1.2%) were called active. The inconclusive results got no clear call from the source; some entries with a clear call stand among them for comparison. Calls come from the whole dose curve; tested in HEK293 cells. A potency beside an inconclusive call is a rough fit, not a confirmed value.
Potency is the fitted concentration of half-maximal effect.

Assay: qHTS for Inhibitors of binding or entry into cells for Lassa Virus; note: nearly all actives have a fitted effect of over 50% in size
Settings: Lassa virus pseudotype entry inhibition, cell reporter; series mostly up to 37.9 µM
In the case of `COc1ccccc1N1CCN(C(=O)CN2C(=O)c3cccc4cccc(c34)C2=O)CC1`, the Potency is reported as inconclusive: 35.5 µM [inhibitor, single point].
For `O=C(CCC(=O)Nc1ccccc1)N/N=C/c1ccc2c(c1)OCO2`, the Potency was “inactive”.
For `Cc1nn2cc(-c3ccc(-c4ccccc4)cc3)nc2s1`, the Potency was active: 11.2 µM.
In the case of `COc1ccc(Cl)cc1NC(=O)CSC1=Nc2ccccc2C2=NC(CC(=O)NCc3cccs3)C(=O)N12` (centres undefined), the Potency is reported as inconclusive: 35.5 µM [activator, single point].
With `N#CC1=C2Sc3ccccc3N2CCCC1=O` the Potency was inconclusive: 8.2 µM [activator, partial curve, poor fit].
With `c1ccc(-c2nc(-c3ccccc3)c(Nc3ccc4ccccc4c3)o2)cc1` the Potency was inconclusive: 3.35 µM [activator, single point].
In the case of `CC(=O)Nc1ccc(C(=O)/C=C/c2ccc[nH]2)cc1`, the Potency is reported as “inactive”.
In the case of `COc1ccc(C(=O)O/N=C(\N)Cc2ccc(Cl)c(Cl)c2)cc1OC`, the Potency is reported as inconclusive: 15.8 µM [inhibitor, partial curve, poor fit].
In the case of `Cc1ccccc1N(CC(=O)NCCc1ccccc1)C(=O)CCC(=O)Nc1ccccn1`, the Potency is reported as inconclusive: 22.4 µM [inhibitor, single point].
In the case of `Cc1ccc(-n2c(O)c(/C=N/N3CCCCC3c3cccnc3)c(=O)[nH]c2=S)cc1` (centres undefined), the Potency is reported as “inactive”.
For `O=C(COc1ccccc1)Nc1ccc2c(c1)C(=O)N(CC1CCCO1)C2=O` (centres undefined), the Potency was inconclusive: 1 µM [inhibitor, single point].
For `COCCN(C(=O)CN1CCCc2ccccc21)c1c(N)n(Cc2ccccc2)c(=O)[nH]c1=O`, the Potency was “inactive”.
In the case of `Cc1ccc2c(C)c(C(=O)N3CCN(C4CCS(=O)(=O)C4)CC3)oc2c1C` (centres undefined), the Potency is reported as “inactive”.
For `CCOC(=O)N1CCC(N(CCN(C)C)C(=S)Nc2cccc(SC)c2)CC1`, the Potency was inconclusive: 15.8 µM [inhibitor, partial curve, poor fit].
In the case of `Cc1ccc(C2=NNC(c3ccc(Cl)cc3)=Nc3ccccc32)o1`, the Potency is reported as “inactive”.
For `Cc1cccc(C2(c3cccc(C)c3)CC2C(=O)Nc2ccc([N+](=O)[O-])cc2O)c1` (centres undefined), the Potency was inconclusive: 10 µM [inhibitor, partial curve, poor fit].
For `COC(=O)c1ccc(CN2CCN(Cc3ccc(F)cc3)C(CCO)C2)cc1` (centres undefined), the Potency was inconclusive: 0.708 µM [inhibitor, single point].
For `Cc1ccsc1C(=O)Nc1ccc(F)c([N+](=O)[O-])c1`, the Potency was inconclusive: 3.16 µM [activator, partial curve, poor fit].
In the case of `Cc1cc(C(=O)NCCN2CCOCC2)ccc1[N+](=O)[O-]`, the Potency is reported as “inactive”.
